This test has as its target T1, RBM39-Flag (RNA-binding Motif Protein 39, Flag-tagged) (human (cDNA from Jurkat cell mRNA)) (UniProt Q14498).
T1 sequence: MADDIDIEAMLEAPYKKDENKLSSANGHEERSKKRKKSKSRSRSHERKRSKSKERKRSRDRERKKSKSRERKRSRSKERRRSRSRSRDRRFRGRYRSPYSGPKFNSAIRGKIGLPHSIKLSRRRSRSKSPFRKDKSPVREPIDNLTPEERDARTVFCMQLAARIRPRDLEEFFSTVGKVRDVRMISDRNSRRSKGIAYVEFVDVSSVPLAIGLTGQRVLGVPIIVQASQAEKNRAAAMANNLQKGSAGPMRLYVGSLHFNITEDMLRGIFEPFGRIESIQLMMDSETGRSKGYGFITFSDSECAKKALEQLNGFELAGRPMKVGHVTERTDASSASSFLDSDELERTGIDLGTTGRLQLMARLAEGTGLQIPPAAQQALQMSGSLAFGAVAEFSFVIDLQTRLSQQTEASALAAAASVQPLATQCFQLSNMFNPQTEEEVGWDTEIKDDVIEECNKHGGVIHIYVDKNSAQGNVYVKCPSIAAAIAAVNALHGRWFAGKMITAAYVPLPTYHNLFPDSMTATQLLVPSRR
The test is described as follows: affinity purification with mass spectrometry; HEK293T transfected with Flag-tagged RBM39 (with Tat plasmid; Vector-Flag as control), 48 h; anti-Flag beads, SDS-PAGE, in-gel digestion, LC-MS/MS.

The chains behind the UniProt entries cited, without tags or fusion partners.
UniProt P17844: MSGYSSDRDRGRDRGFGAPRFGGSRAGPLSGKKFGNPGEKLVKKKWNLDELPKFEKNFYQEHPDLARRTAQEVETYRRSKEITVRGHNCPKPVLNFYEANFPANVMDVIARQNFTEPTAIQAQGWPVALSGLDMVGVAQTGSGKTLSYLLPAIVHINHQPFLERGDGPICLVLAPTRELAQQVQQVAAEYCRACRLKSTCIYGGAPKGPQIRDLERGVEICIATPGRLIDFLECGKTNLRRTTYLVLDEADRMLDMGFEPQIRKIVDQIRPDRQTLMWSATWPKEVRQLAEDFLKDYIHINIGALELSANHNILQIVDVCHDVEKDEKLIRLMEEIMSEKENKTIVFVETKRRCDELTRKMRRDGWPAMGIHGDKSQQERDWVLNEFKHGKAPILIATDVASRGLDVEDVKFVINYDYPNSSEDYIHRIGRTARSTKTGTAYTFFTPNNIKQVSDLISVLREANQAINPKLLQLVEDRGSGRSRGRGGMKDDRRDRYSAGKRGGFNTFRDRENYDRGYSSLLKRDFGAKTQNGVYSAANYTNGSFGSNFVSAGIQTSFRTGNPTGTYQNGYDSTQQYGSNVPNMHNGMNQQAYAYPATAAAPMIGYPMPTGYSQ
UniProt Q9NR30: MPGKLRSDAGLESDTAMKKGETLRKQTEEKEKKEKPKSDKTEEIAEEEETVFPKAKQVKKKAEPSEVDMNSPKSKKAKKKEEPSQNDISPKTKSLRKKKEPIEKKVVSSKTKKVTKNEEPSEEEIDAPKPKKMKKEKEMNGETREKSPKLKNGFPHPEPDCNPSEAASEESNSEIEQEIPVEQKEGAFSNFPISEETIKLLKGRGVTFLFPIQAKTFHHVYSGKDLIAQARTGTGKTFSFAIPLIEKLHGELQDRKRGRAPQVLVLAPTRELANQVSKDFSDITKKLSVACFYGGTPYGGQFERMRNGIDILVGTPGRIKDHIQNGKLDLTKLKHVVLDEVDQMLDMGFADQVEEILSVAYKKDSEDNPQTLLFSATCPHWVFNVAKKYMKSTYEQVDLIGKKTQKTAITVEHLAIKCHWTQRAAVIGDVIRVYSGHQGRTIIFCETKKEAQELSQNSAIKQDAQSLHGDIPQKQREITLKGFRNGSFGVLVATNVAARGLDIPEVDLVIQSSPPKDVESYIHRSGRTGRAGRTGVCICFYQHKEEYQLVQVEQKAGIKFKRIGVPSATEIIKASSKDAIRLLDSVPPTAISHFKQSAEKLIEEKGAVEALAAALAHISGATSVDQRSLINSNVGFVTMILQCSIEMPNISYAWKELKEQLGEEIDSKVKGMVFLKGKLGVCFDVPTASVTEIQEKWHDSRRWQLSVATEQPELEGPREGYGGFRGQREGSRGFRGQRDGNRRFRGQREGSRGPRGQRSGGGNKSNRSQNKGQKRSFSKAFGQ

Results are given in words; binding and its absence hold for the method and conditions named. Binding seen in cells or lysates may run through a third protein. These calls come from enrichment with a bait or labelling near it, and not all partners need be listed. Sequences can lack the tags named with a protein.

Regarding “DDX5 (endogenous) (from UniProt P17844 1-614)”, the binding result is reported as “binds”.
As for “DDX21 (endogenous) (from UniProt Q9NR30 1-783)”, the binding result is “binds”.

The values above are taken from article PMC12617877.
